{
  "sequences": {"note": "Chains of the proteins cited; added tags and fusions are not shown. Lines headed by an entry give the natural chain unless they say otherwise; changes in a name come on top.", "UniProt O94782": "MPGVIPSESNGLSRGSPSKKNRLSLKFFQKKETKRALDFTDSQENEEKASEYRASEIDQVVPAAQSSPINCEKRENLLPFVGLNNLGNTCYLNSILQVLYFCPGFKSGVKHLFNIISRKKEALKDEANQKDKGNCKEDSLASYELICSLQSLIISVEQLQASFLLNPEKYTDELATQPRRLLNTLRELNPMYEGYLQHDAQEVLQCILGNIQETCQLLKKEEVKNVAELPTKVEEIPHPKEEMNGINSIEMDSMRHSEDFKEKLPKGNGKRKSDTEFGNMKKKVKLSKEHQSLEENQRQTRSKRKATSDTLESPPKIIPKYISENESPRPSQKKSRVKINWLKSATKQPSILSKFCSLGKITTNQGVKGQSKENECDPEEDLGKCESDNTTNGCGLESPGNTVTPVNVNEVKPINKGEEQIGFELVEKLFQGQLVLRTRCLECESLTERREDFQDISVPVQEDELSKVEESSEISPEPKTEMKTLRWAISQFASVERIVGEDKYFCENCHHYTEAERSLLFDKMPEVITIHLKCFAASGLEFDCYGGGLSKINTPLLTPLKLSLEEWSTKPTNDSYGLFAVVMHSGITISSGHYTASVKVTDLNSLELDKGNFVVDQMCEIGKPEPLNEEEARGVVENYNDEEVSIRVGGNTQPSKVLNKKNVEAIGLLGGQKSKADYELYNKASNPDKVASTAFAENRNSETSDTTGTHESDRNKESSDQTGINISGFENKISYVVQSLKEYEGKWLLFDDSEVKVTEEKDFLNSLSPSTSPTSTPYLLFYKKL"},
  "source": "PubChem BioAssay (NCATS)",
  "key": {"[1]": {"assay": "Quantitative High-Throughput drug screen in 47 multiple myeloma cell lines against the NCATS MIPE library collection: RPMI8226_ATCC cell viability assay (AID 1919871); also: nearly all actives have a fitted effect of over 30% in size; also: potency is read from the fitted curve at half-maximal effect", "summary_of_the_method": "(§1)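 Myeloma cells (500/well) treated with MIPE 4.0 compounds for 48 h at 37 °C, 5% CO2. Viability read as ATP via CellTiter-Glo luminescence after 5 min at RT; DMSO-only wells = 100%, media-only = 0% viability.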"}, "[2]": {"assay": "Quantitative High-Throughput drug screen in 47 multiple myeloma cell lines against the NCATS MIPE library collection: KMS11_JCRBsus cell viability assay (AID 1919873)", "summary_of_the_method": "as §1"}, "7G8": {"tested_on": "7G8", "assay": "qHTS profiling for inhibitors of Plasmodium falciparum proliferation (AID 504749)", "conditions": "P. falciparum in erythrocytes, SYBR Green DNA, 72 h; series mostly up to 28.7 µM", "summary_of_the_method": "(§2)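 P. falciparum-infected erythrocytes (0.3% parasitemia, 2.5% hematocrit final) were exposed to compounds for 72 h at 37 C in 5% CO2, then lysed with SYBR Green buffer overnight at room temperature; parasite DNA fluorescence was normalized to artemisinin and DMSO controls.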"}, "[3]": {"assay": "Quantitative High-Throughput drug screen in 47 multiple myeloma cell lines against the NCATS MIPE library collection: KMS27_JCRB cell viability assay (AID 1918970)", "conditions": "KMS27 myeloma cells, CellTiter-Glo ATP viability, 48 h", "summary_of_the_method": "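Each line is seeded at 500 cells per well and treated with library compounds for 48 hours under 37 °C, 5% CO2. CellTiter-Glo is then added for 5 min at room temperature before median relative luminescence is recorded.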"}, "astro": {"tested_on": "astro", "assay": "Drug repurposing screens with cells derived from glioblastoma tumor samples (AID 1345199)", "conditions": "viability, ATP luminescence, 48 h", "summary_of_the_method": "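Four patient lines of CD133+ GBM neurospheres were screened at several concentrations; hits were retested in those lines plus three slower-growing GBM lines, using 48-hour treatment and ATP-based viability.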"}, "CP185": {"tested_on": "CP185", "assay": "qHTS profiling for inhibitors of Plasmodium falciparum proliferation (AID 504749)", "conditions": "P. falciparum in erythrocytes, SYBR Green DNA, 72 h; series mostly up to 28.7 µM", "summary_of_the_method": "as §2"}, "CP192": {"tested_on": "CP192", "assay": "qHTS profiling for inhibitors of Plasmodium falciparum proliferation (AID 504749)", "conditions": "P. falciparum in erythrocytes, SYBR Green DNA, 72 h; series mostly up to 28.7 µM", "summary_of_the_method": "as §2"}, "P94_40": {"tested_on": "P94_40", "assay": "qHTS profiling for inhibitors of Plasmodium falciparum proliferation (AID 504749)", "conditions": "P. falciparum in erythrocytes, SYBR Green DNA, 72 h; series mostly up to 28.7 µM", "summary_of_the_method": "as §2"}, "[4]": {"assay": "qHTS of pediatric cancer cell lines to identify multiple opportunities for drug repurposing: Confirmatory screen for NB1643 cells (AID 1347109)", "summary_of_the_method": "(§3)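 Cells (500-1,000/well) in growth media were settled 5 h at 37 degrees C, then given compounds for 48 h. Viability was read as CellTiter-Glo luminescence. Primary runs used MIPE at 11 points (0.78 nM-46 µM) and NPC at 8 points (0.59 nM-46 µM); follow-ups used 11 points.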"}, "[5]": {"assay": "qHTS of pediatric cancer cell lines to identify multiple opportunities for drug repurposing: Confirmatory screen for BT-12 cells (AID 1347112)", "summary_of_the_method": "as §3"}, "[6]": {"assay": "qHTS of pediatric cancer cell lines to identify multiple opportunities for drug repurposing: Confirmatory screen for RD cells (AID 1347124)", "conditions": "RD rhabdomyosarcoma cell viability", "summary_of_the_method": "as §3"}, "[7]": {"assay": "Cell Viability qHTS for small molecule stabilizers of the endoplasmic reticulum resident proteome (AID 1508629)", "conditions": "cell viability counter-screen, 100 nM thapsigargin for final 4 h"}, "[8]": {"assay": "qHTS to identify inhibitors of the type 1 interferon - major histocompatibility complex class I in skeletal muscle: primary screen against the NCATS Mechanism Interrogation Plate v5.0 (MIPE) Libary (AID 1347411)", "conditions": "iHSKM cells + IFN-b, HiBiT-tagged MHC-I luminescence, 24 h", "summary_of_the_method": "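Immortalized human C25cl48 myoblasts with HiBit knocked into endogenous HLA-B*08:01 were stimulated with 4.0 ng/ml IFN-beta and exposed to compounds (11-point 1:3 titration, top 46 uM final) for 24 hrs at 37 C; HiBiT lytic luminescence measured.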"}, "[9]": {"molecular_target": "Bile acid receptor (Homo sapiens) (UniProt Q96RI1)", "assay": "qHTS assay for small molecule agonists of farnesoid X receptor signaling (AID 588527; calls by dose curve)", "conditions": "HEK293T FXR-UAS-bla, beta-lactamase ratio, 16 h; activation: active compounds read high", "summary_of_the_method": "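Quantitative HTS used FXR-UAS-bla HEK293T cells with 16 h compound incubation at 37 C. EC50 values came from concentration-response curves normalized to chenodeoxycholic acid.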"}, "[10]": {"molecular_target": "Ubiquitin carboxyl-terminal hydrolase 1 (Homo sapiens) (UniProt O94782)", "assay": "Inhibitors of USP1/UAF1: Pilot qHTS (AID 504865)", "summary_of_the_method": "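Enzyme-free wells gave the negative control, while test wells held 1nM USP1/UAF1 preincubated with compound for 15 min at room temperature. Ub-Rho at 150nM final started the reaction, and fluorescence at 480/540 nm was recorded kinetically.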"}},
  "note": "“And” between values parts separate entries of the source, which are not always exact repeats. Equal entries are not always repeated. The shares of active, inactive and inconclusive entries below differ from those in the screen. For part of these data: Where the call is inconclusive, the potency comes from a doubtful curve fit. For part of these data: A note “side channel” means that the fit belongs to a control or component signal, not to the main read-out. The source made the active and inactive calls. Unless noted, calls follow the shape of the dose curve; as a rule, active = well fitted curve in the direction sought with a large enough effect; inconclusive = small, poorly fitted or top-dose-only effect, or another doubt; inactive = no such curve, though single readings can be large; an effect the other way counts as inactive or inconclusive.",
  "data": [
    {"smiles": "Cc1ccc(CN2CCNCC2)cc1NC(=O)CNc1ccc(F)c(F)c1", "values": [
      {"measurement": "Potency", "setting": "[1]", "result": "inactive"},
      {"measurement": "Potency", "setting": "[2]", "result": "inconclusive: 14.8 µM [cytotoxic, partial curve, poor fit]"}
    ]},
    {"smiles": "N#CCC(=O)NN", "values": [
      {"measurement": "Potency", "setting": "7G8", "result": "inactive"}
    ]},
    {"smiles": "CC(C)N1[N]C(=C2C=c3cc(O)ccc3=N2)c2c(N)ncnc21", "values": [
      {"measurement": "Potency", "setting": "[3]", "result": "active: 0.209 µM"},
      {"measurement": "Potency", "setting": "[2]", "result": "active: 0.105 µM"},
      {"measurement": "Potency", "setting": "astro", "result": "active: 3.55 µM"}
    ]},
    {"smiles": "CC(=O)O[C@]1(C(C)=O)CC[C@H]2[C@@H]3C=C(Cl)C4=CC(=O)CC[C@]4(C)[C@H]3CC[C@@]21C", "values": [
      {"measurement": "Potency", "setting": "CP185", "result": "inconclusive: 14.1 µM [inhibitor, single point]"},
      {"measurement": "Potency", "setting": "CP192", "result": "inconclusive: 19 µM [inhibitor, single point]"},
      {"measurement": "Potency", "setting": "P94_40", "result": "active: 11.2 µM"},
      {"measurement": "Potency", "setting": "astro", "result": "inconclusive: 35.5 µM [inhibitor, partial curve]"}
    ]},
    {"smiles": "NNC(=O)c1ccncc1", "values": [
      {"measurement": "Potency", "setting": "[3]", "result": "inactive"},
      {"measurement": "Potency", "setting": "[1]", "result": "inactive"}
    ]},
    {"smiles": "Nc1nc(Cl)nc2c1ncn2[C@@H]1O[C@H](CO)[C@@H](O)[C@@H]1F", "values": [
      {"measurement": "Potency", "setting": "[4]", "result": "active: 1.47 µM"},
      {"measurement": "Potency", "setting": "[5]", "result": "inconclusive: 0.827 µM [cytotoxic, full curve, poor fit]"},
      {"measurement": "Potency", "setting": "[6]", "result": "inactive"}
    ]},
    {"smiles": "CN1C[C@H](C(=O)N[C@]2(C)O[C@@]3(O)[C@@H]4CCCN4C(=O)[C@H](Cc4ccccc4)N3C2=O)C[C@@H]2c3cccc4[nH]cc(c34)C[C@H]21", "values": [
      {"measurement": "Potency", "setting": "[7]", "result": "inconclusive: 0.141 µM [rising, full curve, poor fit]"},
      {"measurement": "Potency", "setting": "CP192", "result": "inconclusive: 9.53 µM [inhibitor, partial curve, poor fit]"}
    ]},
    {"smiles": "COc1cc(C[C@@H](CO)[C@H](CO)Cc2ccc(O)c(OC)c2)ccc1O", "values": [
      {"measurement": "Potency", "setting": "[1]", "result": "inconclusive: 0.105 µM [rising, full curve, poor fit]"},
      {"measurement": "Potency", "setting": "[2]", "result": "inactive"}
    ]},
    {"smiles": "Cc1c[nH]c2ccccc12", "values": [
      {"measurement": "Potency", "setting": "7G8", "result": "inactive"}
    ]},
    {"smiles": "Nc1ncnc2c1ncn2[C@@H]1O[C@H](CO)[C@@H](O)[C@H]1O", "values": [
      {"measurement": "Potency", "setting": "CP185", "result": "inactive"}
    ]},
    {"smiles": "CCc1ccc(C(=O)Nc2cc(CN3CCN(C)CC3)cc(C(F)(F)F)c2)cc1C#Cc1cnc2ccnn2c1", "values": [
      {"measurement": "Potency", "setting": "[8]", "result": "inconclusive: 26.2 µM [inhibitor, partial curve, poor fit]"},
      {"measurement": "Potency", "setting": "[3]", "result": "active: 5.9 µM"}
    ]},
    {"smiles": "CC(C)(Oc1ccc(CCNC(=O)c2ccc(Cl)cc2)cc1)C(=O)O", "values": [
      {"measurement": "Potency", "setting": "[9]", "result": "inconclusive: 0.0891 µM [side channel, falling, full curve, poor fit]"}
    ]},
    {"smiles": "O=C1c2c(O)cccc2Cc2cccc(O)c21", "values": [
      {"measurement": "Potency", "setting": "[10]", "result": "inconclusive: 89.1 µM [inhibitor, partial curve] and inconclusive: 4.47 µM [inhibitor, full curve, poor fit]"},
      {"measurement": "Potency", "setting": "[9]", "result": "inconclusive: 0.0794 µM [side channel, falling, full curve, poor fit]"}
    ]},
    {"smiles": "CC[C@]1(O)CC2CN(CCc3c([nH]c4ccccc34)[C@@](C(=O)OC)(c3cc4c(cc3OC)N(C)[C@H]3[C@@](O)(C(=O)OC)[C@H](OC(C)=O)[C@]5(CC)C=CCN6CC[C@]43[C@@H]65)C2)C1", "note": "(stereo not given in full)", "values": [
      {"measurement": "Potency", "setting": "[10]", "result": "inconclusive: 56.2 µM [inhibitor, partial curve]"},
      {"measurement": "Potency", "setting": "[8]", "result": "inconclusive: 0.587 µM [inhibitor, full curve]"},
      {"measurement": "Potency", "setting": "CP185", "result": "active: 3.55 µM"},
      {"measurement": "Potency", "setting": "CP192", "result": "active: 4.26 µM"}
    ]}
  ]
}
